Test results as given in patent US5190922A (priority 1991, dated 1993).

Assay: general procedure: Boc solid-phase peptide synthesis; Boc-DArg(N-guanidino-Tos)-Merrifield resin; EDC/HOBT or mixed anhydride (IBCF/NMM) for solution couplings

Substance | step yield (coupling step) | step yield (late stage modification step) | further results
(N-Methyl)Phenylalanyl-Lysyl-Prolyl-{(2R)-2-Amino-3-cyclohexylpropanoyl}-Phenylalanyl-N-{(2R/S)-2Phenylbutyl}amide | 70% |  | 
(N-Methyl)Phenylalanyl-Lysyl-Prolyl-{(2R)-2-Amino-3-cyclohexylpropanoyl}-Phenylalanyl-N-(4-Guanidinobutyl)amide | 12% yield |  | 
(N-Methyl)Phenylalanyl-Lysyl-Prolyl-{(2R)-2-Amino-3-cyclohexylpropanoyl}-Phenylalanyl-N-(3-Cyanoethyl)amide |  | 43% | 
N-Boc-(N-Methyl)Phenylalanyl-Lysyl(N-epsilon-Boc)-Prolyl{(2R)-2-Amino-3-cyclohexylpropanoyl}-{(2S)-2-Amino-3-cyclohexylpropanoyl}-OH |  | 95% | 
N-Boc-(N-Methyl)Phenylalanyl-Lysyl(N-epsilon-Boc)-Prolyl{(2R)-2-Amino-3-cyclohexylpropanoyl}-{(2S)-2-Amino-3-cyclohexylpropanoyl}-OEt | 96% |  | 
(N-Methyl)Phenylalanyl-Lysyl-Prolyl-{(2R)-2-Amino-3-cyclohexylpropanoyl}-N- (4-Aminobutyl)-N-(2-Phenethyl)amide |  | 37% | 
(N-Methyl)Phenylalanyl-Lysyl-Prolyl-{(2R)-2-Amino-3-cyclohexylpropanoyl}-Phenylalanyl-N-(2-Amidinoethyl)amide |  | 18% | 
(N-Methyl)Phenylalanyl-Lysyl-Prolyl-{(2R)-2-Amino-3-cyclohexylpropanoyl}-N- (4-Guanidinobutyl)-N-(2-Phenethyl)amide |  | 25% | 
(N-Methyl)Phenylalanyl-Lysyl-Prolyl-{(2R)-2-Amino-3-cyclohexylpropanoyl}-Phenylalanyl Methyl ester |  | 55% yield | 
Cbz-Lysyl(N-epsilon-Boc)-Prolyl-{(2R)-2-Amino-3-cyclohexylpropanoyl}-{(2S)- 2-Amino-3-cyclohexylpropanoyl}-OEt | 97% |  | 
(N-Methyl)Phenylalanyl-Lysyl-Prolyl-{(2R)-2-Amino-3-cyclohexylpropanoyl}-Phenylalanyl-N-{(2-Cyclohexyl-2-methyl)propyl}amide |  | 47% | 
(N-Methyl)Phenylalanyl-Lysyl-Prolyl-{(2R)-2-Amino-3-cyclohexylpropanoyl}-Phenylalanyl-NH2 | 74% |  | 
N-Boc-(N-Methyl)Phenylalanyl-Lysyl(N-epsilon-Boc)-Prolyl{(2R)-2-Amino-3-cyclohexylpropanoyl}-Phenylalanyl-OH |  | 99% | 
N-Boc-(N-Methyl)Phenylalanyl-Lysyl(N-epsilon-Boc)-Prolyl{(2R)-2-Amino-3-cyclohexylpropanoyl}-OH |  | 83% | 
(N-Methyl)Phenylalanyl-Lysyl-Prolyl-{(2R)-2-Amino-3-cyclohexylpropanoyl}-{(2S)-2-Amino-3-cyclohexylpropanoyl}-N-(4-Aminobutyl)amide | 63.5% |  | 
(N-Methyl)Phenylalanyl-Lysyl-prolyl-{(2R/S)-2-Amino-3-cyclohexylpropanoyl}- {(2R/S)-2-Amino-3-cyclohexyl-2-(5-guanidinopentyl)propanoyl}-N-(2-Phenethyl)amide |  |  | difficulty met (coupling step): During the peptide coupling, the (2R)-2-Amino-3-cyclohexylpropanoyl residue racemized
(N-Methyl)Phenylalanyl-Lysyl-Prolyl-{(2R)-2-Amino-3-cyclohexylpropanoyl}-{(S)-(-)-2-Amino-3-phenyl-1-propanol} | 63% |  | 
(N-Methyl)Phenylalanyl-Lysyl-Prolyl-{(2R)-2-Amino-3-cyclohexylpropanoyl}-Phenylalanyl-Anilide |  | 57% | 
(N-Methyl)Phenylalanyl-Lysyl-Prolyl-{(2R)-2-Amino-3-cyclohexylpropanoyl}-{(2S)-2-Amino-3-cyclohexylpropanoyl}-N-(4-Guanidinobutyl)amide |  |  | step yield (coupling step, acetate salt): 38%
(N-Methyl)Phenylalanyl-Lysyl-Prolyl-{(2R)-2-Amino-3-cyclohexylpropanoyl}-{(2S)-2-Amino-3-cyclohexylpropanoyl}-N-(5-Guanidinopentyl)amide |  |  | step yield (late stage modification step, overall): 21%
